The numbers were not newly measured in US20170290285A1, “HIGH REBAUDIOSIDE-C PLANT VARIETAL AND COMPOSITIONS EXTRACTED THEREFROM WITH HIGH REBAUDIOSIDE-C AND TOTAL STEVIOL GLYCOSIDE CONTENT” (GLG Life Tech Corporation, priority 2014, published 2017), which cites them from elsewhere.

The conditions of this data set: Table 1.

With `C=C1C[C@@]23CC[C@H]4[C@@](C)(CCC[C@@]4(C)C(=O)O[C@@H]4O[C@H](CO)[C@@H](O)[C@H](O)[C@H]4O[C@@H]4O[C@H](CO)[C@@H](O)[C@H](O)[C@H]4O)[C@@H]2CC[C@]1(O[C@@H]1O[C@H](CO)[C@@H](O)[C@H](O)[C@H]1O[C@@H]1O[C@H](CO)[C@@H](O)[C@H](O)[C@H]1O)C3` [Rebaudioside E], the Quality of taste result is “Like sucrose”.
Consider `C=C1C[C@@]23CC[C@H]4[C@@](C)(CCC[C@@]4(C)C(=O)O[C@@H]4O[C@H](CO)[C@@H](O)[C@H](O)[C@H]4O[C@@H]4O[C@H](CO)[C@@H](O)[C@H](O)[C@H]4O)[C@@H]2CC[C@]1(O[C@@H]1O[C@H](CO)[C@@H](O)[C@H](O[C@@H]2O[C@H](CO)[C@@H](O)[C@H](O)[C@H]2O)[C@H]1O[C@@H]1O[C@H](CO)[C@@H](O)[C@H](O)[C@H]1O)C3` [Rebaudioside D], for which the Quality of taste entry is on record as “Like sucrose”.
Consider `C=C1C[C@@]23CC[C@H]4[C@@](C)(CCC[C@@]4(C)C(=O)O[C@@H]4O[C@H](CO)[C@@H](O)[C@H](O)[C@H]4O)[C@@H]2CC[C@]1(O[C@@H]1O[C@H](CO)[C@@H](O)[C@H](O)[C@H]1O[C@@H]1O[C@H](CO)[C@@H](O)[C@H](O)[C@H]1O)C3` [Stevioside], for which the Quality of taste entry is given as “Bitter”.
Take Rebaudioside B: the Quality of taste result is “Bitter”.
For `C=C1C[C@@]23CC[C@H]4[C@@](C)(CCC[C@@]4(C)C(=O)O[C@@H]4O[C@H](CO)[C@@H](O)[C@H](O)[C@H]4O)[C@@H]2CC[C@]1(O[C@@H]1O[C@H](CO)[C@@H](O)[C@H](O)[C@H]1O[C@@H]1O[C@@H](C)[C@H](O)[C@@H](O)[C@H]1O)C3` [Dulcoside A], the Quality of taste result is given as “Very bitter”.
On to Rebaudioside C, for which the Quality of taste entry is recorded as “Bitter”.
As to `C=C1C[C@@]23CC[C@H]4[C@@](C)(CCC[C@@]4(C)C(=O)O)[C@@H]2CC[C@]1(O)C3` [Steviol], the Quality of taste result is given as “Very bitter”.
Take Rubusoside: the Quality of taste entry is given as “Very bitter”.
As to `C=C1C[C@@]23CC[C@H]4[C@@](C)(CCC[C@@]4(C)C(=O)[O-])[C@@H]2CC[C@]1(O[C@@H]1O[C@@H](CO)[C@@H](O)[C@H](O)[C@@H]1O[C@@H]1O[C@@H](CO)[C@@H](O)[C@H](O)[C@@H]1O)C3.[Na+]` [Stevlolbioside], the Quality of taste entry is reported as “Unpleasant”.
